Laboratory results as given in publication PMC5029668.
Results are given in words; binding and its absence hold for the method and conditions named. In cells and extracts the contact can be indirect. Some results given as binding are weak or reduced against the parent protein; the word gives no strength.

The chains behind the UniProt entries cited, without tags or fusion partners.
UniProt O15169: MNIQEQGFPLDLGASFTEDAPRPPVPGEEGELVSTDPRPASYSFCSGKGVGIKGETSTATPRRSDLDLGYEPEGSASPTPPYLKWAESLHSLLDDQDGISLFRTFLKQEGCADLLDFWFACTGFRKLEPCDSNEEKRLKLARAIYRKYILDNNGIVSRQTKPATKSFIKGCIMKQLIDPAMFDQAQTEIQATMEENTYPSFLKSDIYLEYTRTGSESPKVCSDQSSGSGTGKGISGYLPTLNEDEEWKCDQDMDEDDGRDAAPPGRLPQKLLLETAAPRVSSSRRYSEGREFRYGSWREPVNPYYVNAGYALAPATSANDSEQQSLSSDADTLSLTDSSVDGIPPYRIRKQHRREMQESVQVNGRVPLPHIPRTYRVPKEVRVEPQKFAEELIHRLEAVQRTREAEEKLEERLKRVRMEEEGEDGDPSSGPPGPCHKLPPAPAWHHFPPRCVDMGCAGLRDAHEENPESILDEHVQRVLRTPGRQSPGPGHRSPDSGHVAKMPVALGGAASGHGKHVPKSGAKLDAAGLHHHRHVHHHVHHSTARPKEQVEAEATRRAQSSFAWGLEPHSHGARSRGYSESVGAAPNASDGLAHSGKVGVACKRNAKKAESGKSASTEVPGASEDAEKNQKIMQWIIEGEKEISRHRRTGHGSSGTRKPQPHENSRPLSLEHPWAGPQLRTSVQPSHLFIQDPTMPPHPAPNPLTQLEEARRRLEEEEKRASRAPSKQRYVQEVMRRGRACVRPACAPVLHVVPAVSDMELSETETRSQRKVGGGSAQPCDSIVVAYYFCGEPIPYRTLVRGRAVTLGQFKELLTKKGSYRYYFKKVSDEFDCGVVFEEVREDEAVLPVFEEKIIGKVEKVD

Experiments:
[1] = target: endogenous Axin (human (endogenous in HEK293T)) (UniProt O15169); assay: co-IP; endogenous proteins; IP with C2b antibody against Axin, blot with anti-Rnf25
[2] = target: endogenous Axin (human (endogenous in HEK293T)) (UniProt O15169); assay: co-IP; two-step co-IP from HEK293T transfected with HA-Nkd1: first IP with C2b (Axin) or control IgG, eluate precipitated again with anti-HA or control IgG; repeated under knock-down of Dvl2

binding [1]: binds
binding [2]: binds
B1: endogenous Rnf25 (protein, UniProt Q96BH1 1-459)
chain: MAASASAAAGEEDWVLPSEVEVLESIYLDELQVIKGNGRTSPWEIYITLHPATAEDQDSQYVCFTLVLQVPAEYPHEVPQISIRNPRGLSDEQIHTILQVLGHVAKAGLGTAMLYELIEKGKEILTDNNIPHGQCVICLYGFQEKEAFTKTPCYHYFHCHCLARYIQHMEQELKAQGQEQEQERQHATTKQKAVGVQCPVCREPLVYDLASLKAAPEPQQPMELYQPSAESLRQQEERKRLYQRQQERGGIIDLEAERNRYFISLQQPPAPAEPESAVDVSKGSQPPSTLAAELSTSPAVQSTLPPPLPVATQHICEKIPGTRSNQQRLGETQKAMLDPPKPSRGPWRQPERRHPKGGECHAPKGTRDTQELPPPEGPLKEPMDLKPEPHSQGVEGPPQEKGPGSWQGPPPRRTRDCVRWERSKGRTPGSSYPRLPRGQGAYRPGTRRESLGLESKDGS
